Source: PubChem BioAssay AID720525 (National Center for Advancing Translational Sciences (NCATS), 2013)
Inconclusive results, whose numbers are uncertain, are shown with a selection of clear calls. Where the call is inconclusive, the potency comes from a doubtful curve fit. Calls of active or inactive are those of the source. The call rests on the fitted dose curve; in most records, active means well fitted activation curve with a large enough effect; inconclusive means small, poorly fitted or top-dose-only effect; inactive means no such curve, though single readings can be large or run the other way.

Experiment: qHTS Assay for NPC1 Promoter Activators: Hit Validation Using Firefly Luciferase Read-Out for Rab9
Conditions: Huh7 Rab9 promoter firefly luciferase reporter, 24 h
Excerpt: Niemann Pick Type C (NPC) is a rare neurodegenerative lipidosis that is characterized by lipid storage in the endosomal/lysosomal system. Treatment modalities for this devastating disease are currently non-existent due to the severe obstacles associated with accessing the central nervous system with proteins or genes. The majority of mutations causing NPC disease are missense mutations that are distributed throughout the length of the NPC1 protein, with the most prevalent being the I1061T allele. Although NPC1 mutant proteins may be functional, they are typically trapped in the ER due to misfolding. […] We have developed and optimized a cell based renilla luciferase reporter assay in 1536 well format for the identification of up-regulators of the mutant Rab9 promoter. This assay presents data on the validation of hits from the primary screen, which used a firefly luciferase read-out. NIH Chemical Genomics Center [NCGC] NIH Molecular Libraries Probe Production centers Network [MLPCN] MLPCN Grant: MH089375 Assay Submitter (PI): Yiannis A. Ioannou
Huh7 cells stably expressing NPC promoter-luciferase will be seeded at 1,500 cells/well in 5 uL in 1,536-well white opaque plates with 23 nL/well of compound in DMSO solution. The assay plates will be incubated at 37 deg C for 24 hours, after which 3 uL/well BriteLite plus luciferase detection reagent mixture (Perkin Elmer) will be added. Luminescence signal will be measured in a ViewLux plate reader (Perkin Elmer) after a 10 minute incubation at the room temperature.

Structure (SMILES)	Potency
O=C(CSc1ncccn1)Nc1cccc2ccccc12	inconclusive: 79.1 µM [activator, partial curve]
CC1CCCN(S(=O)(=O)c2ccc(C(=O)Nc3nnc(-c4ccncc4)o3)cc2)C1 (stereo not given)	inactive
CCOc1cc(C(=O)N=c2sccn2C)ccc1OC(F)F	inconclusive: 79.1 µM [activator, partial curve]
COCCSc1ncnc2c1oc1nc3c(cc12)COC(C)(C)C3	inconclusive: 99.6 µM [activator, partial curve]
COC(=O)c1ccccc1NC(=O)c1cc(-c2cccs2)on1	inconclusive: 2.5 µM [activator, full curve]
O=C(CCCn1c(=O)oc2ccccc21)N1CCN(c2ccccn2)CC1	inconclusive: 79.1 µM [activator, partial curve]
Cc1ccc(NC(=O)c2ncc(Cl)c(Cl)c2Cl)cc1C	inconclusive: 62.8 µM [activator, partial curve]
O=C(CSc1nccn1Cc1ccco1)Nc1ccccc1F	inactive
N#CC/C(N)=N/NC(=O)CCCNc1ncc(C(F)(F)F)cc1Cl	active: 19.9 µM
Cc1cccc(N2CCN(C(=S)c3ccccc3)CC2)c1	inactive
O=C(CSc1nnc(-c2ccccc2)o1)Nc1ccccc1F	active: 0.112 µM
COc1ccc(C(=O)OCC(=O)N2CCCC2=O)c(OC)c1	inconclusive: 49.9 µM [activator, partial curve]
O=C(NC(=S)Nc1ccc(CN2CCCCC2)cc1)c1cc2ccccc2o1	inactive
COC(=O)c1ccccc1NC(=O)c1ccc(-c2ccc(Br)cc2)o1	inconclusive: 15.8 µM [activator, partial curve]
Cc1ccc(NC(=O)NC(=O)c2ccccc2)cc1F	active: 0.445 µM

No new results follow: entries from further up.
Structure (SMILES)	Potency
CCOc1cc(C(=O)N=c2sccn2C)ccc1OC(F)F	inconclusive: 79.1 µM [activator, partial curve]
COCCSc1ncnc2c1oc1nc3c(cc12)COC(C)(C)C3	inconclusive: 99.6 µM [activator, partial curve]
